# Measurements from PubChem BioAssay AID1347076 (National Center for Advancing Translational Sciences (NCATS), 2019).
# Hit rate of the full screen: of about 400,000 compounds, about 13,000 (3.2%) were called active. The inconclusive results got no clear call from the source; some entries with a clear call stand among them for comparison. Calls follow the shape of the dose curve; as a rule, active = well fitted cell-killing curve with a large enough effect; inconclusive = small, poorly fitted or top-dose-only effect, or effect the other way; inactive = flat fitted curve, though single readings scatter. Potencies of inconclusive entries are doubtful fits and often do not repeat.
# Experiment: qHTS assay for MDR1-selective chemotherapeutics: Primary screen using the drug-selected MDR subline cells KB-V1; also: nearly all actives have a fitted effect of over 60% in size
# Conditions: KB-V1 MDR cells viability, CellTiter-Glo, 72 h; activity change, negative = cytotoxicity: at 46.1 µM (top of the series)
# Summary of the method: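 KB-V1, DMEM (no phenol red) + 10% FBS; cpd pin-transferred, titration series; 72 h, 37 degrees C; CellTiter-Glo, luminescence. Data normalized, curve-fit.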
# % is scaled to controls: 0 for no effect and ±100 for the full control effect; potency is read from the fitted curve at half-maximal effect.
SMILES,Potency,"activity change, negative = cytotoxicity"
O=C(c1cccs1)c1no[n+]([O-])c1C(=O)c1cccs1,"inconclusive: 16.4 µM [cytotoxic, single point]",–
Cc1ccc(C)c(N(CC(=O)NC2CCCC2)C(=O)c2cc3cc4cc(C)ccc4nc3s2)c1,"inconclusive: 1.03 µM [cytotoxic, partial curve, poor fit]",–
NC(=O)c1oc2ccccc2c1NC(=O)c1ccc([N+](=O)[O-])o1,active: 7.31 µM,–
OC(CNCC(c1ccco1)N1CCCCC1)c1ccccc1 (stereo not given),"inconclusive: 18.4 µM [cytotoxic, partial curve]",–
CCOc1ccccc1NC(=O)NNC(=O)COc1cccc(C)c1C,"inconclusive: 32.6 µM [cytotoxic, partial curve, poor fit]",–
O=c1cc(CSc2ccc(Cl)cc2)nc(N2CCOCC2)[nH]1,"inconclusive: 20.6 µM [cytotoxic, single point]",–
COc1ccc(-n2nc([N+](=O)[O-])c(=NCc3ccc4c(c3)OCO4)n2O)cc1,active: 20.6 µM,–
Cc1ccc(NC(=O)c2cnn(-c3ccc(C)c(C)c3)c2C2CCN(C(=O)OC(C)(C)C)CC2)c(C)c1,"inconclusive: 29.1 µM [cytotoxic, single point]",–
CC(C)N(C(=O)COc1ccc(Br)cc1Cl)C(C)C,active: 14.6 µM,–
Cc1ccc(NC(=O)c2cc(-c3ccccc3O)n[nH]2)cc1C,"inconclusive: 10.3 µM [rising, partial curve, poor fit]",–
O=C(NC1CCCC1)C(c1ccncc1)N(CC1CCCO1)C(=O)Cn1nnc(-c2cccs2)n1 (stereo not given),active: 23.1 µM,–
CC(=O)OCC(=O)C1(O)CCC2C3CCC4=CC(=O)CCC4(C)C3C(O)CC21C (stereo not given),–,inactive: -1.27%
COc1cccc(CN2CCN(Cc3ccco3)CC2)c1,–,inactive: -11.8%
COc1ccc(N(CC(O)Cn2nnc3ccccc32)S(=O)(=O)c2ccc(C)cc2)cc1 (stereo not given),"inconclusive: 2.31 µM [cytotoxic, full curve]",–
COc1cc([N+](=O)[O-])ccc1NC(=O)CCCOc1cc(C)ccc1C,"inconclusive: 29.1 µM [rising, single point]",–
CN1CCc2c(sc(/N=C/c3cc(C(C)(C)C)ccc3O)c2C#N)C1,–,inactive: 28.7%
COCCN(C(=O)COC(=O)CC1CCCCC1)c1c(N)n(Cc2ccccc2)c(=O)[nH]c1=O,"inconclusive: 29.1 µM [rising, single point]",–
CC(C)(C)OC(=O)NCCCCCNC(=O)c1nc[nH]c1C(=O)NCCCCCNC(=O)OC(C)(C)C,"inconclusive: 29.1 µM [cytotoxic, single point]",–
O=C(NNC(=O)c1cccc(Br)c1)C(=O)N1CCCCC1,"inconclusive: 29.1 µM [rising, single point]",–
N#Cc1ccc(S(=O)(=O)N2CCc3[nH]c4ccc(F)cc4c3C2)cc1,"inconclusive: 16.4 µM [cytotoxic, single point]",–
O=C(CN1CCN(CC(=O)Nc2ccc3c(c2)OC2(CCCCC2)O3)CC1)Nc1cccc(F)c1,active: 5.8 µM,–
COc1ccc(C2CC(c3ccccc3OC(C)=O)=NN2C(=O)/C=C/c2ccccc2)cc1OC (stereo not given),"inconclusive: 16.4 µM [cytotoxic, partial curve, poor fit]",–
CCS(=O)(=O)NCCc1csc(-c2ccc(OC)c(OC)c2)n1,"inconclusive: 29.1 µM [cytotoxic, single point]",–

SMILES,Potency,"activity change, negative = cytotoxicity"
CN(C(=O)COc1ncnc2c1cnn2-c1ccccc1)C1CCCCC1,active: 9.2 µM,–
CNC(=S)N(Cc1ccco1)Cc1cc2cc(OC)ccc2[nH]c1=O,"inconclusive: 29.1 µM [cytotoxic, single point]",–
CCCC[n+]1c(C)sc2ccc(C)cc21,–,inactive: -7.38%
S=C1NCN(Cc2ccco2)CN1CCc1ccccc1,–,inactive: -1.63%
O=[N+]([O-])c1ccc(F)c(CN2CCN(c3ncc(Cc4ccccc4)cn3)CC2)c1,"inconclusive: 16.4 µM [cytotoxic, single point]",–
CCOC(=O)C1CCN(CC(=O)Nc2cc(S(=O)(=O)N3CCCCC3)ccc2Cl)CC1,"inconclusive: 6.51 µM [cytotoxic, full curve]",–
COc1ccc(Cl)cc1NC(=O)c1cc(-c2ccccc2O)n[nH]1,"inconclusive: 10.3 µM [cytotoxic, partial curve]",–
Cc1ccccc1CN(C)C[C@@H]1OCc2cnnn2CCCC(=O)N([C@@H](C)CO)C[C@H]1C,–,inconclusive: 15.5%
O=C1/C(=C/c2ccco2)Cc2ccccc21,"inconclusive: 29.1 µM [rising, single point]",–
Cc1ccc(C)c(N2CCN(C(=O)C3CCCCN3S(=O)(=O)c3ccc(F)cc3)CC2)c1 (stereo not given),active: 2.59 µM,–
CCCCOc1ccc(S(=O)(=O)Nc2cc(OC)ccc2OC)cc1,"inconclusive: 29.1 µM [cytotoxic, single point]",–
CN(CC(=O)Nc1c(Cl)cccc1Cl)C(=O)C1CC(=O)N(Cc2ccccc2)C1 (stereo not given),–,inactive: -4.27%
CCCOC(=O)/C(=C\c1ccc([N+](=O)[O-])o1)NC(=O)c1ccccc1,"inconclusive: 29.1 µM [cytotoxic, single point]",–
Cn1nc(C(F)(F)F)c(C(=O)Nc2ccc(F)cc2F)c1Cl,–,inactive: 2.65%
COc1ccc(CCNC(=O)C2CCN(C(=O)c3ccc([N+](=O)[O-])cc3)CC2)cc1,–,inactive: -14.2%
COc1ccc2[nH]c(C(=O)N/N=C/c3ccc(OC)c(O)c3)cc2c1,active: 9.2 µM,–
COC(=O)C[C@H]1C=C[C@H](NC(=O)c2cccc(F)c2)[C@@H](CO)O1,–,inactive: 5.74%
Cc1ccc(NC(=O)CN(c2ccccc2)S(=O)(=O)N(C)C)cc1C,"inconclusive: 14.6 µM [cytotoxic, partial curve]",–
Cc1cc(C)c2nc(N3CCCC(C(=O)NCc4cccc(Cl)c4)C3)sc2c1 (stereo not given),–,inactive: 6.75%
C[C@@H]1CC=C[C@@H]2[C@H]1C(=O)N(Cc1ccccc1)[C@H]2c1cccc(C#Cc2ccccc2)c1,"inconclusive: 29.1 µM [cytotoxic, single point]",–
CCn1c(-c2csc3ccccc23)n[nH]c1=S,active: 7.31 µM,–
Cn1c(N/N=C/c2cc3ccccc3nc2Cl)nc2ccccc21,"inconclusive: 2.31 µM [cytotoxic, full curve, poor fit]",–

# Record cards, from the list above. Order of values: Potency | activity change, negative = cytotoxicity
# CCOC(=O)C1CCN(CC(=O)Nc2cc(S(=O)(=O)N3CCCCC3)ccc2Cl)CC1 is listed as inconclusive: 6.51 µM [cytotoxic, full curve] | –
# CNC(=S)N(Cc1ccco1)Cc1cc2cc(OC)ccc2[nH]c1=O is listed as inconclusive: 29.1 µM [cytotoxic, single point] | –
